From PMC5130018 (2016)
No constants are given. Whether binding was seen depends on the method and setting. Some entries that bind do so weakly or less than the wild type. For some assays here: Where a sequence is shown, tags or fusion partners need not be part of it.

Tests used:
[1] = biological target: T1, mouse Clec9a expressed on HEK-293T cells (pIRES2-EGFP-mClec9a) (mouse) (UniProt Q8BRU4); test: flow cytometry on cells; biotinylated peptide incubated with HEK-293T cells transfected with pIRES2-EGFP-mClec9a (wild type or single alanine mutants) at 4°C for 30min, washed with FACS buffer containing 2mM EDTA, stained with streptavidin-PE; only the binder purified
T1 sequence: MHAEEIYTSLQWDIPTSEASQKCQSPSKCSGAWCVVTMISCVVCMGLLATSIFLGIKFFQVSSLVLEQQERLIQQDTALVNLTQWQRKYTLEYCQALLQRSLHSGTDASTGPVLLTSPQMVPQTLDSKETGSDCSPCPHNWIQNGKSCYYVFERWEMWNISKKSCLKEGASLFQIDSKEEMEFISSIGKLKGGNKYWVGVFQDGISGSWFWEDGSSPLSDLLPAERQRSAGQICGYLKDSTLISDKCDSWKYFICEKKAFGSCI

[2] = biological target: T2, Clec9a on mouse Flt3L induced dendritic cells (FL-DCs) (mouse (endogenous in Flt3L induced bone marrow DCs)) (UniProt Q8BRU4); test: flow cytometry on cells; biotinylated peptide incubated with FL-DCs (Flt3L induced bone marrow DCs) at 4°C for 30min, washed with FACS buffer containing 2mM EDTA, stained with streptavidin-PE; only the binder purified
T2 sequence: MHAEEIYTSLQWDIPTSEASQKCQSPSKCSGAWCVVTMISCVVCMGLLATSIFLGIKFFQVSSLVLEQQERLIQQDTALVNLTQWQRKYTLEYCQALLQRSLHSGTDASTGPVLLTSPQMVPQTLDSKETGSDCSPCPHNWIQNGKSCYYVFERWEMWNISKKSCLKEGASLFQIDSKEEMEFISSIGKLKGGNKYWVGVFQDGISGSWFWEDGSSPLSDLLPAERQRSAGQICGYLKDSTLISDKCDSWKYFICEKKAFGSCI

B1: WH-biotin (peptide WH with GGGK-biotin at the carboxyl terminal) (peptide)
peptide: WPRFHSSVFHTHGGGK
modifications: biotin on the C-terminal lysine (GGGK-biotin)
In the case of B1, the binding [1] is reported as “binds”.

B2: biotinylated peptide IH (peptide)
peptide: IKTGPASLQNPHGGGK
modifications: biotin on the C-terminal lysine (GGGK-biotin)
In the case of B2, the binding [2] is reported as “no binding”.

B3: biotinylated peptide RW (peptide)
peptide: RPHRNGGRDQTWGGGK
modifications: biotin on the C-terminal lysine (GGGK-biotin)
In the case of B3, the binding [2] is reported as “no binding”.

B4: biotinylated peptide SR (peptide)
peptide: SAHNPSSLTGSRGGGK
modifications: biotin on the C-terminal lysine (GGGK-biotin)
B4 was tested, and the binding [2] was “no binding”.

B5: GA-biotin (control peptide) (peptide)
peptide: GAGAAGGAGGGGGGGK
modifications: biotin on the C-terminal lysine (GGGK-biotin)
With B5 the binding [1] was “no binding”.
